According to patent publication US20170312353A1:
No constants are given. Whether binding was seen depends on the method and setting. Some results given as binding are weak or reduced against the parent protein; the word gives no strength.

Sequences of proteins named here, by UniProt entry; tags and fusion partners are left off. Residues count along the entry.
UniProt P00747, residues 20-810: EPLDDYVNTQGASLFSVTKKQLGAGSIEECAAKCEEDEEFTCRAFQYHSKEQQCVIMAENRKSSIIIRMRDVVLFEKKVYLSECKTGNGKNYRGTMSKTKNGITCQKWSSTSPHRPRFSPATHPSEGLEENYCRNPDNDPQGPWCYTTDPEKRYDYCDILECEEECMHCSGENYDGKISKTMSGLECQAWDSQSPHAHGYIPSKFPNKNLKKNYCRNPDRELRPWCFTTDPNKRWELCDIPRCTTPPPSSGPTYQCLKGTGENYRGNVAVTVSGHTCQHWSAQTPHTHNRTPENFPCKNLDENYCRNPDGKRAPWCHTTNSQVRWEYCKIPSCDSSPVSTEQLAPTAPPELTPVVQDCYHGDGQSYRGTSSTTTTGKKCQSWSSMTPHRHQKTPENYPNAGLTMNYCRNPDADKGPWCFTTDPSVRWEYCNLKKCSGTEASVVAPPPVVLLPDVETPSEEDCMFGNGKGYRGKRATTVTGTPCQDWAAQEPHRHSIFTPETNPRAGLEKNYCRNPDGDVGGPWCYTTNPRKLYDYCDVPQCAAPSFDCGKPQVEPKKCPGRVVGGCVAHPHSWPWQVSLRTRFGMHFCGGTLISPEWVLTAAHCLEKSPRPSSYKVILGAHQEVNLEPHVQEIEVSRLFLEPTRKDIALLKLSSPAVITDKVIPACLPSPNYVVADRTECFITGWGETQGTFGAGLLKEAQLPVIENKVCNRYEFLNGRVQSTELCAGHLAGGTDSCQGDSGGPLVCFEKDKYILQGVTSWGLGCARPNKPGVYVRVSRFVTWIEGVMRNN

How the values were obtained:
plasminogen [1] = molecular target: plasminogen (UniProt P00747); assay: ELISA, peptide immobilized, plasminogen in solution, HRP anti-plasminogen antibody, TMB
plasminogen [2] = molecular target: plasminogen (UniProt P00747); assay: Dot-Blot, peptide on nitrocellulose, HRP anti-plasminogen antibody, DAB

B1: peptide 7 (peptide)
peptide: VAASEFYNSENKTYDLDFKTPNNDK
B1 was tested, and the binding (plasminogen [1]) was “binds” and the binding (plasminogen [2]) was “binds”.

B2: peptide 8 (peptide)
peptide: VAASEFYNSENKTYDLDFKTPNNDKSLVKTGAQLVK
For B2, the binding (plasminogen [1]) was “binds” and the binding (plasminogen [2]) was “binds”.
